Measured values as given in PubChem BioAssay AID1347076 (National Center for Advancing Translational Sciences (NCATS), 2019).
Screen size: about 400,000 compounds; about 13,000 (3.2%) were called active. Inconclusive results, whose numbers are uncertain, are shown with a selection of clear calls. The call rests on the fitted dose curve; in most records, active means well fitted cell-killing curve with a large enough effect; inconclusive means small, poorly fitted or top-dose-only effect, or effect the other way; inactive means flat fitted curve, though single readings scatter. A potency beside an inconclusive call is a rough fit, not a confirmed value.

Test: qHTS assay for MDR1-selective chemotherapeutics: Primary screen using the drug-selected MDR subline cells KB-V1; further: nearly all actives have a fitted effect of over 60% in size
Conditions: KB-V1 MDR cells viability, CellTiter-Glo, 72 h; activity change, negative = cytotoxicity: at 46.1 µM (top of the series)
Procedure, shortened: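 KB-V1, DMEM (no phenol red) + 10% FBS; cpd pin-transferred, titration series; 72 h, 37 degrees C; CellTiter-Glo, luminescence. Data normalized, curve-fit.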
On the % scale 0 is the no-effect control and ±100 the full control effect; potency means the concentration at half of the fitted maximal effect.

Compound	activity change, negative = cytotoxicity	Potency
CCOCCc1nnc(NC(=O)C(=O)c2cc(C)n(-c3ccc(C)cc3C)c2C)s1	inactive: 0%	
COC(=O)C1=C(C)N(CC2CCCO2)C(=O)/C1=C\c1ccc(O)cc1 (centres undefined)		inconclusive: 14.6 µM [cytotoxic, partial curve, poor fit]
COc1ccc(CCN(C(=O)c2cccc(F)c2)C2CC(=O)N(c3ccccc3)C2=O)cc1 (centres undefined)		inconclusive: 23.1 µM [cytotoxic, partial curve, poor fit]
Cc1cc(C)n2c(SC(C)C(=O)NC3(C#N)CCCCC3)nnc2n1 (centres undefined)	inactive: 7.54%	
CCC(c1nnnn1-c1ccc2c(c1)OCCO2)N1CCN(C/C=C/c2ccccc2)CC1 (centres undefined)		active: 8.2 µM
CC(C)NC(=S)NN=C1c2ccccc2-c2ccccc21		inconclusive: 16.4 µM [cytotoxic, single point]
O=C1CCC(C(=O)N2CCSCC2)CN1Cc1ccc(Cl)cc1 (centres undefined)	inactive: 19.5%	
CC(NC(=O)/C(C#N)=C1\N=C(NC(=O)c2cccs2)c2ccccc21)c1ccccc1 (centres undefined)		inconclusive: 14.6 µM [cytotoxic, partial curve]
CCn1c(C)c(C)c2cc(C(=O)NCC(C)c3ccccc3)ccc21 (centres undefined)		inconclusive: 32.6 µM [cytotoxic, single point]
CN(Cc1cccc(F)c1)C(=O)c1cccc(S(=O)(=O)N2CCN(Cc3ccccc3)CC2)c1		inconclusive: 7.31 µM [cytotoxic, partial curve]
CN(CC(=O)NCC(=O)Nc1ccc(F)cc1)CC(=O)Nc1ccc(Cl)c(C(F)(F)F)c1		inconclusive: 29.1 µM [cytotoxic, single point]
CCCCNC(=O)C1CCCN(S(=O)(=O)c2c(C)noc2/C=C/c2cccs2)C1 (centres undefined)		inconclusive: 7.31 µM [cytotoxic, partial curve]
O=C(NCC1COc2ccccc2O1)c1cccc(S(=O)(=O)N2CCOCC2)c1 (centres undefined)	inactive: 3.11%	
CN(C)S(=O)(=O)c1cccc(NC(=O)COc2cccc(C#N)c2)c1		inconclusive: 23.1 µM [cytotoxic, single point]
Cc1cccc(NC(=O)CSc2nnc(CNC(=O)c3cccs3)o2)c1C	inactive: -5.17%	
Cc1cccc(NC(=S)NCC(C)CSc2ccc(Cl)cc2)c1 (centres undefined)		inconclusive: 18.4 µM [cytotoxic, single point]
CCN(CC)C(=O)C1=C(C)N(Cc2ccc(C(C)(C)C)cc2)C(=O)C(CC(=O)NCCCCc2ccccc2)C1 (centres undefined)	inconclusive: -37.3% [cytotoxic]	
O=C(N/N=C/C1CCCCC1)c1ccccn1	inactive: 8.11%	
O=C(Nc1ccn(Cc2ccccc2)n1)c1ccc(F)cc1		inconclusive: 14.6 µM [cytotoxic, single point]
O=C(Cn1ncc2c([nH]c3ccccc32)c1=O)NCCCN1CCN(c2ccc(F)cc2)CC1	inactive: -0.703%	
CN(C)S(=O)(=O)c1ccc(NCC2COc3ccccc3O2)c([N+](=O)[O-])c1 (centres undefined)		inconclusive: 18.4 µM [cytotoxic, single point]
COc1ccc(CN(C)CC(O)COC(c2ccc(OC)cc2)c2ccc(OC)cc2)cc1 (centres undefined)		inconclusive: 14.6 µM [cytotoxic, partial curve]
O=C(NCc1ccncc1)C(=O)NCC(c1ccco1)N1CCN(c2ccc(F)cc2)CC1 (centres undefined)		active: 2.59 µM

Compound	activity change, negative = cytotoxicity	Potency
COc1ccc(C(=O)C2CCCN(Cc3ccc4nonc4c3)C2)cc1OC (centres undefined)	inactive: -9.56%	
CC(C)C[C@H](NC(=O)c1[nH]cnc1C(=O)N[C@H](C)c1ccccc1)C(=O)OCc1ccccc1		inconclusive: 20.6 µM [cytotoxic, single point]
c1ccc2c3c(c(CN4CCCC4)cc2c1)COC3		inconclusive: 29.1 µM [cytotoxic, single point]
Cc1ccc(S(=O)(=O)Nc2ccccc2C(=O)Nc2nc(-c3ccc(F)cc3)cs2)cc1		active: 2.59 µM
CCCCCn1c(CCNC(=O)c2cccs2)nc2ccccc21		inconclusive: 23.1 µM [cytotoxic, partial curve, poor fit]
COc1cccc(N2CCN(C(=O)CCC(=O)N3CCOc4ccc(C)cc43)CC2)c1		inconclusive: 29.1 µM [cytotoxic, single point]
N#C/C(=C(/O)CCl)c1nc(-c2ccccc2)cs1		inconclusive: 23.1 µM [cytotoxic, single point]
O=C(CCc1ccccc1)NCC(=O)N/N=C/c1ccc(O)cc1O		inconclusive: 13 µM [cytotoxic, partial curve, poor fit]
C=CCNC(=O)/C(=C\C=C\c1ccccc1)NC(=O)c1ccc(OCCCC)cc1		inconclusive: 14.6 µM [cytotoxic, partial curve]
CC(C(=O)N1CCOCCOCCOCC1)N1C(=O)c2ccccc2C1=O (centres undefined)		inconclusive: 29.1 µM [rising, single point]
COc1ccc(NC(=O)Nc2ccc3nccnc3c2)cc1		inconclusive: 29.1 µM [cytotoxic, single point]
O=C(CCl)Nc1cccc(Oc2cnccn2)c1		inconclusive: 23.1 µM [cytotoxic, single point]
COc1ccc(OC)c(NC(=O)Cn2cc(C#N)c3ccccc32)c1		inconclusive: 4.61 µM [cytotoxic, partial curve]
COc1ccc(OCc2nc(C#N)c(N3CCN(c4ccc(OC)cc4)CC3)o2)cc1		inconclusive: 0.58 µM [rising, full curve, poor fit]
C=C(C)C(=O)Oc1ccc(N=Nc2ccc(C)cc2)ccc1=O		inconclusive: 29.1 µM [cytotoxic, single point]
O=C(Nc1cccc(S(=O)(=O)N2CCCCC2)c1)c1ccc2c(=O)n3c(nc2c1)CCCCC3		active: 5.8 µM
CCN1C(=O)/C(=C\N2CCN(c3ccc(F)cc3)CC2)SC1=S		active: 2.59 µM
Nc1ccccc1SC1CC(=O)N(c2ccc3c(c2)OCCO3)C1=O (centres undefined)	inactive: -2.75%	
Cc1ccc(CNc2ccc3c(c2)ncn3C(C)C)cc1		inconclusive: 16.4 µM [cytotoxic, partial curve, poor fit]
CCOC(=O)N1CCC(N2Cc3cccc(C(=O)Nc4ccc(N(CC)CC)cc4C)c3C2=O)CC1		inconclusive: 29.1 µM [cytotoxic, single point]
CC(C)c1nnc(NC(=O)c2c(O)c3cccc4c3n(c2=O)CCC4)s1		inconclusive: 4.11 µM [cytotoxic, full curve]
O=c1c2ccsc2ncn1Cc1cccc(C(F)(F)F)c1	inactive: -3.82%	
CCOC(=O)C(CC)Sc1ccc2nnc(-c3cccnc3)n2n1 (centres undefined)		inconclusive: 6.51 µM [cytotoxic, partial curve]

Compound	activity change, negative = cytotoxicity	Potency
Cc1cc(=O)oc2cc(NC(=O)c3cccc(S(C)(=O)=O)c3)ccc12	inactive: 8.51%	
COCCOC(=O)c1[nH]c2c(c1C)C(=O)CC(c1cccs1)C2 (centres undefined)		active: 1.46 µM
COC(=O)c1ccc(NC(=O)CCN2CCN(Cc3ccccc3)CC2)cc1		inconclusive: 11.6 µM [cytotoxic, partial curve]
COc1cc2c(cc1OC)CN(CC(=O)NC(=O)NC1CCCCC1)CC2		inconclusive: 8.2 µM [cytotoxic, partial curve]
Cc1nn(-c2ccccc2)c(N)c1N=Nc1cccc(S(=O)(=O)N2CCOCC2)c1		active: 4.11 µM
O=C(CSc1nnnn1-c1ccc(C(=O)O)cc1)NC1CCCCC1		inconclusive: 29.1 µM [rising, single point]
CCOC(=O)C1CCCN(CC(=O)Nc2c(C(=O)OC)[nH]c3ccc(Cl)cc23)C1 (centres undefined)	inactive: -11.6%	
CNCC(O)CN1CCN(c2ccccc2OC)CC1 (centres undefined)	inactive: -1.79%	
CCN(CC(=O)Nc1c(F)cccc1F)C(=O)c1cc(-c2cccs2)nn1-c1ccccc1		inconclusive: 20.6 µM [cytotoxic, partial curve]
CCOc1cccc(-c2nnc3sc(COc4ccc(Cl)cc4)nn23)c1		inconclusive: 18.4 µM [cytotoxic, partial curve, poor fit]
N#C/C(=C\c1cn(Cc2ccc(C#N)cc2)c2ccccc12)C(=O)NCc1cccs1		inconclusive: 23.1 µM [rising, single point]
COc1cc2c(cc1OC)CN(C(=O)c1ccc(Cl)c(S(=O)(=O)N3CCCC3)c1)CC2		active: 20.6 µM
CCCS(=O)(=O)c1c(S(=O)(=O)CCC)c2c(C)cccn2c1C(=O)OC		inconclusive: 5.17 µM [cytotoxic, partial curve, poor fit]
O=C(Nc1ccc(CN2CCOCC2)cc1)c1ccc(Br)cc1	inactive: -5.97%	
CCOc1cc(/C=C2\CCC/C(=C\c3cc(Cl)c(O)c(OCC)c3)C2=O)cc(Cl)c1O		inconclusive: 20.6 µM [cytotoxic, single point]
O=C(NCC(c1ccco1)N1CCc2ccccc2C1)c1c(F)cccc1F (centres undefined)		inconclusive: 20.6 µM [cytotoxic, single point]
O=C(CN1CCN(c2ccc(O)cc2)CC1)N(C1CC1)C1CCS(=O)(=O)C1 (centres undefined)	inactive: -7.26%	
O=C(COC(=O)c1ccc(F)cc1Cl)NC1CC1	inactive: 5.26%	
O=C(Nc1ccccc1-c1nnc(SCc2ccc(Cl)cc2Cl)o1)c1ccccc1		inconclusive: 8.2 µM [cytotoxic, partial curve]
CCOC(=O)c1ccc(NCCOC)c([N+](=O)[O-])c1		inconclusive: 16.4 µM [cytotoxic, partial curve]
O=S(=O)(c1cc(F)ccc1F)N1CCN(c2ccccn2)CC1	inactive: -8.21%	
Cn1c(SCC(=O)NCCc2ccccc2)nnc1C1CCCCC1		inconclusive: 6.51 µM [cytotoxic, single point]
CCOC(=O)C1=C(C)NC2=C(C(=O)CC(c3ccc(OC)c(OC)c3)C2)C1c1ccc(C)o1 (centres undefined)		active: 18.4 µM

Reprinted at random: 3 compounds from above.
Compound	activity change, negative = cytotoxicity	Potency
O=C(Nc1ccccc1-c1nnc(SCc2ccc(Cl)cc2Cl)o1)c1ccccc1		inconclusive: 8.2 µM [cytotoxic, partial curve]
N#C/C(=C\c1cn(Cc2ccc(C#N)cc2)c2ccccc12)C(=O)NCc1cccs1		inconclusive: 23.1 µM [rising, single point]
Cn1c(SCC(=O)NCCc2ccccc2)nnc1C1CCCCC1		inconclusive: 6.51 µM [cytotoxic, single point]
